Drawing on US20090298155A1, this text covers binding for two substances.

Protein sequences, listed by entry. Tags and fused reporters are not part of them. Residues count along the entry.
UniProt O14744: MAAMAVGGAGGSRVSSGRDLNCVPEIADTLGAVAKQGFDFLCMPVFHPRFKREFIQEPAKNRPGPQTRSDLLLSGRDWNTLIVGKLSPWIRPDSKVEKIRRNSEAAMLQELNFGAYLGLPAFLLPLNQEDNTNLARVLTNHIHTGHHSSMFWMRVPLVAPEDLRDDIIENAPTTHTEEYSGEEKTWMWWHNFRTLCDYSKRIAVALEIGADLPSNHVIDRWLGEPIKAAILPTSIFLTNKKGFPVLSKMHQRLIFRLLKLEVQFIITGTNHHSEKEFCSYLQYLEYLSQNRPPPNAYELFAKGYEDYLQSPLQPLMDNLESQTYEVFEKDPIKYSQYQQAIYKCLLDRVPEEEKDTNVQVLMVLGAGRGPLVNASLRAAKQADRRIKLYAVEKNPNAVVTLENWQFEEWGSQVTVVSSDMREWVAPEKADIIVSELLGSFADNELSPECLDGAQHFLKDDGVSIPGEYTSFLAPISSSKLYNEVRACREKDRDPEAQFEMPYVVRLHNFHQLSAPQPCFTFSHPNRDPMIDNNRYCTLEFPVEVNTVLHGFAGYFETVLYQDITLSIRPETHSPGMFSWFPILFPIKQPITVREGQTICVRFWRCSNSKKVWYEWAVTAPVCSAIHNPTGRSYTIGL
UniProt Q8CIG8, residues 2-637: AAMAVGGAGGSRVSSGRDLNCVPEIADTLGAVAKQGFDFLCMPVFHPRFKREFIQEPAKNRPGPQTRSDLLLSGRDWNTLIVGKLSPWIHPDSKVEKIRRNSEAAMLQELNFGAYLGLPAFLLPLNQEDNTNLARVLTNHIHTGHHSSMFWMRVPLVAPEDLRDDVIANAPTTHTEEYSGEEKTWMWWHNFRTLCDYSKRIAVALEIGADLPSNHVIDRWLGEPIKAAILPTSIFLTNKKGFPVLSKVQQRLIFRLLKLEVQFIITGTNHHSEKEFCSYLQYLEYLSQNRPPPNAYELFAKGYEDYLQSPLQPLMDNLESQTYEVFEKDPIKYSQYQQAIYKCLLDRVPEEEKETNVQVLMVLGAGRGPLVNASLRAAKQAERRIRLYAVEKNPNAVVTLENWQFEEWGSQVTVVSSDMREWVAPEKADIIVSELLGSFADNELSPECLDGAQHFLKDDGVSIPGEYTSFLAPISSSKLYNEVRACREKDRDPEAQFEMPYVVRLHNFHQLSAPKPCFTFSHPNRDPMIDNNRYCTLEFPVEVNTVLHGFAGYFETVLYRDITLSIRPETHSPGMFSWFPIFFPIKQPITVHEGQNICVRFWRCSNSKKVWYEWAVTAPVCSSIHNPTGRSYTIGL
UniProt Q60636: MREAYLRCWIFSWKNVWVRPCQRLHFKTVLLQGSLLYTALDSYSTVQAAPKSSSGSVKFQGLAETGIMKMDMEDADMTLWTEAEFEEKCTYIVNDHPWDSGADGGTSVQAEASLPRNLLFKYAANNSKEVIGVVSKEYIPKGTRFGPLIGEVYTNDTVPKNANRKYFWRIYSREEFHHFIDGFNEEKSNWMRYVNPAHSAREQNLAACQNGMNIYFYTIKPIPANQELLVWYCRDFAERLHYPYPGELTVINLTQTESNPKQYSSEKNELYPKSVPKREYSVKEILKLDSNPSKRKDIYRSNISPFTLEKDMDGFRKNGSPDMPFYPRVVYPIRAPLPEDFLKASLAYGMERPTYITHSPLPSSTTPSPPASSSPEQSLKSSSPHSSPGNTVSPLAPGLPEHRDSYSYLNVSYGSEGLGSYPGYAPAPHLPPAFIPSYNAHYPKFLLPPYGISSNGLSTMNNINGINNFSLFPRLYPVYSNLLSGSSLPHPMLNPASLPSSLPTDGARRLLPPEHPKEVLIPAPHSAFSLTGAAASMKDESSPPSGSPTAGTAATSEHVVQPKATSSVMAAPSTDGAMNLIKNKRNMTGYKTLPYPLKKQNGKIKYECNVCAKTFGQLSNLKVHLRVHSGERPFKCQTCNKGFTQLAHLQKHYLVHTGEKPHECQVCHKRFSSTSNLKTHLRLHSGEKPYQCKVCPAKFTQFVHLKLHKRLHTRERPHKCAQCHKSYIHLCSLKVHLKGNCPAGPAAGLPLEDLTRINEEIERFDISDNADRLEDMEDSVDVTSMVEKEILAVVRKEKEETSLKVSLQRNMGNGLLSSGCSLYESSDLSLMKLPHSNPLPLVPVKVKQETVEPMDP

The target of experiment [1] is endogenous Prmt5 in 293T cells (UniProt O14744). Kind of experiment: co-immunoprecipitation with Myc antibodies from 293T cell extracts, Western blot. (In western blotting, separated proteins are transferred to a membrane and probed.)
The target in experiment [2] is endogenous Prmt5 in mouse EC (P19) cells (mouse) (UniProt Q8CIG8). Put plainly: co-immunoprecipitation with Prmt5 antibodies from P19 cell extracts, Western blot.
Experiment [3] has as its target Myc-tagged mouse Blimp1 (mouse) (UniProt Q60636). Put plainly: reciprocal co-immunoprecipitation with Prmt5 antibodies from 293T cell extracts, Western blot.

No constants are given. Whether binding was seen depends on the method and setting. In cells and extracts the contact can be indirect. Some binding calls cover weakened binding; strength is not graded here.

Take “Myc-tagged mouse Blimp1 (from UniProt Q60636 1-856)”: the binding result in experiment [1] and in experiment [2] was “binds” each time.
Take “endogenous Prmt5 in 293T cells (from UniProt O14744 1-637) (enzyme)”: the binding result in experiment [3] is “binds”.
